Results deposited as PubChem BioAssay AID743454 (Peter MacCallum Cancer Centre, 2014)

Assay: 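Search for knock-downs that restore vorinostat killing in resistant colon cancer cells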 (primary screen)
System: human HCT116-VR colon cancer cells, selected for vorinostat resistance
Reagents: siRNA pool against human genes, 40 nM siRNA pool
Time to read-out: vorinostat for 24 h, read-out about 72 h after transfection
Challenge: vorinostat at 2.5 µM final
Detection: 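Cell viability by CellTiter-Fluor and caspase 3/7 activity by luminescence, each scaled to mock wells per plate, duplicates averaged, then robust z-scored over all plates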
Direction: viability robust z-score: higher = more viable cells than screen typical; caspase robust z-score: higher = more caspase 3/7 activity than screen typical
Active means: 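a knock-down is a hit when classed RV1 or RV2 for lowered viability, or CA1 or CA2 for caspase activation; those lethal without drug were dropped; hits were retested singly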
Shown is a random part of about 18,000 reagents tested. Over the whole deposit, 450 (2.5%) are marked active. 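Single biological run; no consistent viability z cut-off exists, so the class columns, not z-scores, define the calls.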 A number with no mark means an inactive call.

FAM86B1
- viability hit class: no change (active)
- caspase hit class: CA1 (caspase activation)
- viability robust z-score: 0.76
- caspase robust z-score: 7.5

TCEAL7 (transcription elongation factor A like 7)
- viability hit class: no change
- caspase hit class: no change
- viability robust z-score: -0.87
- caspase robust z-score: 1.42

NCOA5 (nuclear receptor coactivator 5)
- viability hit class: no change
- caspase hit class: no change
- viability robust z-score: 1.85
- caspase robust z-score: -0.06

USH2A (usherin)
- viability hit class: no change
- caspase hit class: no change
- viability robust z-score: 0.62
- caspase robust z-score: -1.29

MRPS9 (mitochondrial ribosomal protein S9)
- viability hit class: no change
- caspase hit class: no change
- viability robust z-score: -1.19
- caspase robust z-score: -1.73

TAB3 (TGF-beta activated kinase 1 (MAP3K7) binding protein 3)
- viability hit class: no change
- caspase hit class: no change
- viability robust z-score: -1.27
- caspase robust z-score: -0.12

SOX10 (SRY-box transcription factor 10)
- viability hit class: no change
- caspase hit class: no change
- viability robust z-score: 0.38
- caspase robust z-score: 0.22

ALCAM (activated leukocyte cell adhesion molecule)
- viability hit class: no change
- caspase hit class: no change
- viability robust z-score: -0.43
- caspase robust z-score: 0.71

ZNF215 (zinc finger protein 215)
- viability hit class: no change
- caspase hit class: no change
- viability robust z-score: 1.31
- caspase robust z-score: 0.55

C1orf216 (chromosome 1 open reading frame 216)
- viability hit class: no change
- caspase hit class: no change
- viability robust z-score: -1.06
- caspase robust z-score: 2.45

AKAP9 (A-kinase anchoring protein 9)
- viability hit class: no change
- caspase hit class: no change
- viability robust z-score: 1.3
- caspase robust z-score: 0.34

TNRC18 (trinucleotide repeat containing 18)
- viability hit class: no change
- caspase hit class: no change
- viability robust z-score: 0.21
- caspase robust z-score: -0.72

MSX1 (msh homeobox 1)
- viability hit class: no change
- caspase hit class: no change
- viability robust z-score: 0.1
- caspase robust z-score: 0.07

POTEH (POTE ankyrin domain family member H)
- viability hit class: no change
- caspase hit class: no change
- viability robust z-score: -1.25
- caspase robust z-score: 0.97

TET1 (tet methylcytosine dioxygenase 1)
- viability hit class: no change
- caspase hit class: no change
- viability robust z-score: 0.08
- caspase robust z-score: -0.08

DRGX (dorsal root ganglia homeobox)
- viability hit class: no change
- caspase hit class: no change
- viability robust z-score: -0.9
- caspase robust z-score: -0.33

RAF1 (Raf-1 proto-oncogene, serine/threonine kinase)
- viability hit class: no change
- caspase hit class: no change
- viability robust z-score: -0.88
- caspase robust z-score: 0.8

DNAJC7 (DnaJ heat shock protein family (Hsp40) member C7)
- viability hit class: no change
- caspase hit class: no change
- viability robust z-score: -0.7
- caspase robust z-score: -0.05

CHPF2 (chondroitin polymerizing factor 2)
- viability hit class: no change
- caspase hit class: no change
- viability robust z-score: 0.5
- caspase robust z-score: 3.89

PTP4A1 (protein tyrosine phosphatase 4A1)
- viability hit class: no change
- caspase hit class: no change
- viability robust z-score: 1.01
- caspase robust z-score: 0.34

ACCS
- viability hit class: no change
- caspase hit class: no change
- viability robust z-score: 1.54
- caspase robust z-score: -0.46

Limited to “viability robust z-score”, for 2 of the entries above:
TCEAL7 (transcription elongation factor A like 7)	-0.87
NCOA5 (nuclear receptor coactivator 5)	1.85
